Counter-ions that a name gives are not always drawn. This is one part of the list. This data set is noisy: repeats of one test often differ as much as different tests do.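 Human fetal ventral-midbrain neural progenitor line ReNCell VM, differentiated without mitogens. Images stained for doublecortin (early neurons) or tyrosine hydroxylase (dopaminergic neurons) were scored by blinded raters against untreated wells (0 = no change). Repeats and both raters were averaged, and compounds averaging 2 or higher were picked as hits for retesting.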
System: ReNCell VM
Assay: dopaminergic neuron differentiation score (TH+ cell fraction vs untreated, manual image score) (score (0 to 3)); higher = more TH+ dopaminergic neuron differentiation
Settings: library: Tocriscreen; 2 uM; 4 weeks; BDNF 10 ng/ml + GDNF 10 ng/ml

Dopaminergic neuron differentiation score, inactive:
CCCCC1CCC(c2nc(-c3ccncc3)no2)CC1 (stereo not given) 0
CCCN(C/C=C/I)C1CCc2cccc(O)c2C1 (stereo not given) [8-Hydroxy-PIPAT oxalate] 0
Cn1cc(/C=C2\C(=O)Nc3cccnc32)c2ccccc21 0
CN1C(=O)C(Cc2c[nH]c3ccccc23)NC1=S (stereo not given) [Necrostatin-1] 0
O=C(NC(NC(=S)Nc1ccc(F)c([N+](=O)[O-])c1)C(Cl)(Cl)Cl)C(c1ccccc1)c1ccccc1 (stereo not given) 0

Source: the supplement of paper PMC4635364
